The values below come from PMC12040169 (PLOS Biology, 2025).

The other results are listed elsewhere or left out.

In this assay the test system is T1, CTL2-GFP (C. trachomatis L2/434/Bu, GFP-expressing).
T1 construct: L2/434/Bu, GFP-expressing
Also on record: species or system HeLa; Intracellular C. trachomatis growth in HeLa cells, bulk GFP fluorescence relative to DMSO. Conditions: bulk GFP, single well; 28.5 h, 10 µM; inhibitor.
With `Cc1nn(C)cc1C(C)NC(=O)c1ccc(CN(C)C)o1` (stereo not shown) [CBK282083], the “% of control remaining” value is recorded as 106.282%.
For `O=C(O)c1ccc(N2C(=O)CC(N3CCN(Cc4ccc5c(c4)OCO5)CC3)C2=O)cc1` (stereo not shown) [CBK074573], the “% of control remaining” value came out at 104.143%.
Take `CN1CCCC(NC(=O)C2CCN(Cc3ccc(F)cc3)CC2)C1` (stereo not shown) [CBK282516]: the “% of control remaining” value was found to be 102.454%.
As for `O=C(c1ccno1)N1C[C@@H]2OCC(=O)N(CC3CC3)[C@@H]2C1` [CBK289680], the figure is 141.208%; as for `Cc1cc(C(=O)CSc2nnc(CN3CCCC3)o2)c(C)n1C1CC1` [CBK306199], 160.805%.
As for `CC(C)c1ccc(CN2CCC3(CC2)CN(CCO)c2ccccc23)cc1` [CBK122708], the “% of control remaining” value came out at 123.622%.
For `Cc1cc(C)cc(Cn2cc(NCc3ccccc3)c(=O)[nH]c2=O)c1` [CBK288009], the “% of control remaining” value was determined as 118.025%.
For the molecule `O=C(NCCNc1cnccn1)c1cc(F)cc(Br)c1` [CBK304554], the “% of control remaining” value came to 101.997%.
`Cc1ccc(NC(=O)N(Cc2ccc(-c3ccccc3)cc2)CC(C)(C)CN)cc1[N+](=O)[O-]` [CBK002439C]: the “% of control remaining” value came out at 53.1183%.
For the molecule `COc1ccc(OC)c(S(=O)(=O)N2CCN(c3ncccn3)CC2)c1` [CBK008662], the “% of control remaining” value came out at 129.661%.
For the molecule `Cc1cc(C(=O)O)c(C)cc1N` [CBK022781], the “% of control remaining” value was determined as 102.351%.
As for `CCC(CC)C(=O)N1C[C@H]2CCc3nnc(-c4ccccc4)n3[C@H]2C1` [CBK283439], the figure is 182.509%.
As for `CC(=O)Nc1ccc(S(=O)(=O)Nc2nnc(CC(C)(C)C)s2)cc1` [CBK049910], the “% of control remaining” value amounted to 135.181%.
Consider `COc1ccc(-c2cc3n[nH]c(=O)n3c(C)n2)cc1` [CBK288439], for which the “% of control remaining” value is on record as 148.647%.
As to `CCCc1n[nH]c(O)c1Cc1ccc(OCCCN(C)C)cc1` [CBK116249A], the “% of control remaining” value was 112.885%.
As for `Cc1cc(=O)oc2cc(NC(=S)NNC(=O)C(C)Sc3nc4ccccc4s3)ccc12` (stereo not shown) [CBK267056], the figure is 145.188%.
For the molecule `Cc1cccc(CC(=O)N2CCC(Cc3ccccc3-c3ccccc3C)(C(N)=O)CC2)c1` [CBK285728], the “% of control remaining” value is on record as 112.375%.
For the molecule `CCOC(=O)N1CCC(NS(=O)(=O)c2ccc(Cl)c(Cl)c2Cl)CC1` [CBK045471], the “% of control remaining” value is 154.517%.
`COC(=O)c1sc2cc(C(F)(F)F)cnc2c1-c1ccccn1` [CBK089888]: the “% of control remaining” value was 108.772%.
Consider `CCOC(=O)CCCCCCC(=O)N1CCN(c2ccc(C(F)(F)F)cc2)CC1` [CBK091327], for which the “% of control remaining” value is on record as 122.641%.
For `O=C(COc1cccc2ccccc12)Nc1ccc(O)cc1` [CBK266002], the “% of control remaining” value was 114.853%.
With `COc1ccccc1C(=O)CN1CCC2(CC1)OCCc1c2[nH]c2ccc(F)cc12` [CBK040238], the “% of control remaining” value came out at 177.678%.
As to `O=C(Nc1ccc(SC(F)F)cc1)c1cc(-c2ccncc2)nc2ccccc12` [CBK296092], the “% of control remaining” value came out at 162.369%.
Turning to `Cc1nc(NS(=O)(=O)c2cccc(Cl)c2C)sc1C(=O)O` [CBK045561], the “% of control remaining” value was determined as 81.874%.
`Cc1c(Cl)c([N+](=O)[O-])nn1CC(=O)N1CCN(C)CC1` [CBK261719]: the “% of control remaining” value was 104.691%.
In the case of `O=C(Nc1cc(N2CCNCC2)ncn1)c1ccccc1` [CBK004215T] it was 150.693%; in that of `Cc1ccc(-c2nn3c(C)nnc3c3ccccc23)cc1S(N)(=O)=O` [CBK268342], 127.924%.
Regarding `O=C(Cc1ccc(Br)cc1)Nc1cc(C(=O)O)cc(C(=O)O)c1` [CBK268228], the “% of control remaining” value is on record as 159.571%.
For the molecule `CCOC(=O)c1c(NC(=O)Cc2ccccc2)sc2c1CCC2` [CBK262309], the “% of control remaining” value is recorded as 115.871%.
As to `Cc1ccc(-n2ncc3c(=O)n(CC(=O)Nc4ccccc4)cnc32)cc1C` [CBK287539], the “% of control remaining” value is given as 133.294%.
As for `CN1CCN(c2ccccc2NC(=O)c2ccc3c(c2)OCCO3)CC1` [CBK268072], the figure is 120.739%; as for `O=C(C1CC2C=CC1C21CC1)N1CCN(Cc2ccccn2)CC1` (stereo not shown) [CBK281443], 128.813%; as for `O=C(c1cnc(-c2ccccc2)c(-c2cccnc2)c1)N1CCC(S(=O)(=O)c2ccccc2)C1` (stereo not shown) [CBK036685], 139.95%.
Turning to `Cc1nc(C)c(-c2csc(CC(C)n3cc(Cl)cn3)n2)o1` (stereo not shown) [CBK304710], the “% of control remaining” value came to 128.011%.
Consider `O=C(O)CCn1c(SCCc2ccccc2)nc2ccccc21` [CBK262384], for which the “% of control remaining” value is given as 94.059%.
Regarding `CN1C[C@@H](NC(=O)c2ccc3c(c2)OCO3)C[C@H]1c1nc(-c2ccccc2)no1` [CBK288876], the “% of control remaining” value is given as 117.071%.
As for `O=C(N/N=C/c1ccc(C(=O)O)cc1)C(=O)Nc1cccc(Br)c1` [CBK262185], the figure is 100%; as for `C#CCNC(=O)CC[C@H]1CNC(=O)[C@@H]2[C@@H](CCN2Cc2nc3ccccc3n2C)N1C` [CBK289018], 134.372%; as for `COc1ccc(OC)c(C(=O)c2coc3ccc(OCC(=O)O)cc23)c1` [CBK111288], 104.057%.
On to `c1ccc2c(c1)CCC2Oc1cncc(N2CCNCC2)n1` (stereo not shown) [CBK200005G], for which the “% of control remaining” value is reported as 102.578%.
Consider `FC(F)(F)c1cnc(Sc2c[nH]nn2)c(Cl)c1` [CBK007252], for which the “% of control remaining” value is recorded as 127.191%.
As to `CC(=O)N1C[C@@H](c2cccc(C)c2)[C@@H]2CN(Cc3ccncc3)CC[C@@H]21` [CBK283370], the “% of control remaining” value is reported as 113.023%.
With `O=C(c1ccc(OC(F)(F)F)cc1)N1CCC2(CCN(Cc3ccccc3)CC2)C1` [CBK136746], the “% of control remaining” value is listed as 123.746%.
Take `Cc1csc(C(Cc2ccsc2)NC(=O)c2ccnn2C)n1` (stereo not shown) [CBK285107]: the “% of control remaining” value is 86.5667%.
Take `O=C(NC(c1ccc(Cl)cc1)c1cccnc1)C1CCN(C(=O)c2ccco2)CC1` (stereo not shown) [CBK059708]: the “% of control remaining” value is 98.6334%.
As to `CCC#CC(=O)Nc1ccccc1N1CCCNCC1` [CBK024291T], the “% of control remaining” value is reported as 96.9792%.
For `COc1cncc(-c2cc(Nc3ccc(NS(=O)(=O)c4ccc(C)cc4)cc3)ncn2)c1` [CBK090988], the “% of control remaining” value is given as 237.549%.
Consider `CCn1c(-c2ccc(C)cc2)cnc1SCC(=O)N1CCN(C(C)=O)CC1` [CBK296925], for which the “% of control remaining” value amounted to 127.661%.
As for `CC(NC(=O)C1CCN(C2Cc3ccccc3C2)CC1)c1ccccc1` (stereo not shown) [CBK148031], the “% of control remaining” value came out at 169.656%.
In the case of `O=C(c1ccncc1)N1CCN(S(=O)(=O)c2ccccc2[N+](=O)[O-])CC1` [CBK264196] it was 96.7912%; in that of `CC1CCCC(C)N1C(=O)Cn1ncn2c(cc3ccsc32)c1=O` (stereo not shown) [CBK284191], 85.9548%.
In the case of `CC(=O)c1c(C)nc2nc(-c3ccncc3)nn2c1C` [CBK288552] it was 101.192%; in that of `O=C(NNC(=O)c1cccnc1)c1ccc(NC(=O)c2ccco2)cc1` [CBK266792], 100.624%; in that of `CCOC(=O)N1CCN(C(=O)Nc2ccc3oc(=O)n(C)c3c2)CC1` [CBK306250], 130.32%.
As to `N#CCCN(Cc1ccco1)C(=O)c1ccc(OCC2CC2)cc1` [CBK304051], the “% of control remaining” value is listed as 121.46%.
With `CC(NC(=O)c1ccc(-c2ccccc2F)s1)C(=O)N1CCCCC1` (stereo not shown) [CBK305740], the “% of control remaining” value was determined as 87.8074%.
For the molecule `COc1cccc(CN2CCc3cc(OC)c(OC)cc3C2)c1` [CBK126441], the “% of control remaining” value was determined as 101.153%.
As for `Sc1nncn1NCc1cc(Cl)ccc1OCc1ccccc1` [CBK265752], the “% of control remaining” value was 121.86%.
As for `Cc1ccc(S(=O)(=O)N[C@H]2CO[C@H]3[C@@H]2OC[C@H]3O)cc1` [CBK289477], the figure is 107.264%; as for `COc1ccc(NC(=O)c2ccc3ncsc3c2)cc1` [CBK287368], 95.7493%.
In the case of `Cc1cc(=O)c2ccccc2n1CC(=O)N(C)CC1CCCCO1` (stereo not shown) [CBK306960] it was 180.332%.
Turning to `O=C(O)CCCC(=O)NCc1cccnc1` [CBK261708], the “% of control remaining” value is reported as 100%.
In the case of `CC(C)Nc1cncc(Sc2cccc(C(=O)O)c2)n1` [CBK093582], the “% of control remaining” value is 106.653%.
For `C=CCOc1ccc(Cl)cc1C(=O)NCc1c(C)n[nH]c1C` [CBK282587], the “% of control remaining” value is on record as 95.3925%.
Consider `CN(Cc1ccncc1)C(=O)c1cccc(S(=O)(=O)NCC2CC2)c1` [CBK305365], for which the “% of control remaining” value is 100.23%.
Regarding `Cc1cc(C)n(CCNC(=O)N2CCC(Oc3cccnc3)CC2)n1` [CBK306719], the “% of control remaining” value was found to be 117.275%.
As for `CN1CCC(N(C)C(=O)NCCc2c[nH]c3ccccc23)C1` (stereo not shown) [CBK156012], the “% of control remaining” value turned out to be 112.507%.
Take `CC(C)Cn1c(=O)[nH]c2ncc(-c3cccc4cccnc34)nc21` [CBK064400]: the “% of control remaining” value is listed as 120.706%.
On to `CN(C)S(=O)(=O)NC1CC(C)(C)Cc2c1cnn2-c1ccccc1` (stereo not shown) [CBK307533], for which the “% of control remaining” value was determined as 125.326%.
As for `Nc1cc(-c2ccco2)nn(Cc2c(Cl)cccc2Cl)c1=O` [CBK282880], the figure is 76.1599%; as for `O=C(Nc1ccccc1N1CCOCC1)c1cccc(OCc2ccccc2)c1` [CBK270011], 121.102%.
As to `COc1cccc(CN2CCCC(NC(=O)c3cn4ccsc4n3)C2)c1` (stereo not shown) [CBK307204], the “% of control remaining” value is 123.1%.
As for `O=C(Cc1n[nH]c(=O)[nH]c1=O)N/N=C/c1cccc(Br)c1` [CBK263086], the “% of control remaining” value is given as 100%.
In the case of `O=C(NC(c1ccc(F)cc1)c1cnccn1)C1CCN(C(=O)c2ccco2)CC1` (stereo not shown) [CBK059956], the “% of control remaining” value stood at 105.396%.
Consider `Cc1nc(SCCN2C(=O)c3ccccc3S2(=O)=O)c2ccccc2n1` [CBK296958], for which the “% of control remaining” value is 139.092%.
Regarding `O=C(NC(c1ccc(F)cc1)c1ccccn1)C1CCN(C(=O)c2ccno2)CC1` (stereo not shown) [CBK059705], the “% of control remaining” value turned out to be 134.681%.
On to `O=C1CCC(=O)N1CC(O)Cn1c2ccc(Cl)cc2c2cc(Cl)ccc21` (stereo not shown) [CBK262222], for which the “% of control remaining” value is 100%.
For `CC1CCCCN1C(=O)C1C2CCC3(CC(=O)c4ccccc4O3)C21` (stereo not shown) [CBK284960], the “% of control remaining” value was found to be 126.176%.
In the case of `CC1CCC2(CC1)NC(=O)N(Cc1coc(-c3ccccc3)n1)C2=O` (stereo not shown) [CBK306196] it was 102.381%.
